The supplement of paper PMC10849652
Some of the results follow.

Amino acid sequences for entries named in this document (tags omitted). A change or cut given only in a name is not applied to a line headed by its entry.
UniProt I6L899: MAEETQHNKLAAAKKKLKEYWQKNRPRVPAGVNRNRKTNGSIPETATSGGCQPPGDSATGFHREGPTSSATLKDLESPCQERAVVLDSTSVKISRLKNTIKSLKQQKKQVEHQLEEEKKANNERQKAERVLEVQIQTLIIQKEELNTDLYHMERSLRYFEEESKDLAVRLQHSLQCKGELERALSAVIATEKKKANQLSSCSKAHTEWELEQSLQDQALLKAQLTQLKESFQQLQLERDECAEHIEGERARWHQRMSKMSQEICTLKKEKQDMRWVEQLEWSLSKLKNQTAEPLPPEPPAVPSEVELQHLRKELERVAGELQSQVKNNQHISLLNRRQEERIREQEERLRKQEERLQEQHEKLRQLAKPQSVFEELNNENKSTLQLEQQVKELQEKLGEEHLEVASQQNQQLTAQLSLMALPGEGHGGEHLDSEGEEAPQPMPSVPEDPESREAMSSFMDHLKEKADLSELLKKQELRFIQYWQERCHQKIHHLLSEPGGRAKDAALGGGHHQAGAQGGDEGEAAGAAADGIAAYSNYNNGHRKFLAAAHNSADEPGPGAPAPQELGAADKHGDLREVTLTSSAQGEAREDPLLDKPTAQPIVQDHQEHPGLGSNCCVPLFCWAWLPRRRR
UniProt Q9UJJ9: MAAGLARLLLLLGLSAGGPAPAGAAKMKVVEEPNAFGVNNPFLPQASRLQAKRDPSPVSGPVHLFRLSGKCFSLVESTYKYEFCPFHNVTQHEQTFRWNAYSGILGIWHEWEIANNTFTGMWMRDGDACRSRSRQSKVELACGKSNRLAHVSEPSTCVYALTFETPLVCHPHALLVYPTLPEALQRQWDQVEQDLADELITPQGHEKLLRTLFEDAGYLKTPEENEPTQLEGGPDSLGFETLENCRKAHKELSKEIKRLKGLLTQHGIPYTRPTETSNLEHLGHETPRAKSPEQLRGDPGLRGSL
UniProt Q86UL3: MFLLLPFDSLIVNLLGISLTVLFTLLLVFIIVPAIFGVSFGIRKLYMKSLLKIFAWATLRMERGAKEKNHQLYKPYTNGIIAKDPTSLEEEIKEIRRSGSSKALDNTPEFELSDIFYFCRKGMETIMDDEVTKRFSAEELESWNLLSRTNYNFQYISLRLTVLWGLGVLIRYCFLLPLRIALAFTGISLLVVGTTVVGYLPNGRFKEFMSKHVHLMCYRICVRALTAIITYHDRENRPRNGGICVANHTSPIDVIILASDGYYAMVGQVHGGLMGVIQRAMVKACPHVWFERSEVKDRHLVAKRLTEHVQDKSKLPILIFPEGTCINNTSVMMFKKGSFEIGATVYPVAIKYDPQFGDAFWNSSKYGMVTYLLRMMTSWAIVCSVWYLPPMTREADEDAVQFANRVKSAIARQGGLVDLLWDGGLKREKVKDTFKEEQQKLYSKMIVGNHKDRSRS
UniProt Q9NU53: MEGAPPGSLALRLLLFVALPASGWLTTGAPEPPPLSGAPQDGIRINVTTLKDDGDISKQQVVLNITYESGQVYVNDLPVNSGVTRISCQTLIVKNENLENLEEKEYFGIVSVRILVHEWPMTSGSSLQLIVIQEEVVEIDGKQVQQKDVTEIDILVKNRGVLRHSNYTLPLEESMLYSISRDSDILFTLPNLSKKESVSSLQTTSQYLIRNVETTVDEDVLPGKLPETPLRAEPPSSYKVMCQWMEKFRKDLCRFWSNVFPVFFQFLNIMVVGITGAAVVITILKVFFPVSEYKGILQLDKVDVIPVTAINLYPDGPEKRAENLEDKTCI
UniProt Q96IJ6: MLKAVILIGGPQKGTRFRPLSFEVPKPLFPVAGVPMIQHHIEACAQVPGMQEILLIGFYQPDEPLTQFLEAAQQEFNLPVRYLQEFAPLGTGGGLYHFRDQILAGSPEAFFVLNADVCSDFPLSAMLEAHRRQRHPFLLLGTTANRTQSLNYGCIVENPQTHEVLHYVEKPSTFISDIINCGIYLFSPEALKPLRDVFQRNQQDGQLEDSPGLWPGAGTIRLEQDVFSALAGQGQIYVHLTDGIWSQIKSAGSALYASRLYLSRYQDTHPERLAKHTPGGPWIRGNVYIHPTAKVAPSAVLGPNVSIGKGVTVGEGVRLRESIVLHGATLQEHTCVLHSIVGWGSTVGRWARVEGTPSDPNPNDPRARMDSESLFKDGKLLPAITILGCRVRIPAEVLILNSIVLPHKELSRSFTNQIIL
UniProt Q5VW38: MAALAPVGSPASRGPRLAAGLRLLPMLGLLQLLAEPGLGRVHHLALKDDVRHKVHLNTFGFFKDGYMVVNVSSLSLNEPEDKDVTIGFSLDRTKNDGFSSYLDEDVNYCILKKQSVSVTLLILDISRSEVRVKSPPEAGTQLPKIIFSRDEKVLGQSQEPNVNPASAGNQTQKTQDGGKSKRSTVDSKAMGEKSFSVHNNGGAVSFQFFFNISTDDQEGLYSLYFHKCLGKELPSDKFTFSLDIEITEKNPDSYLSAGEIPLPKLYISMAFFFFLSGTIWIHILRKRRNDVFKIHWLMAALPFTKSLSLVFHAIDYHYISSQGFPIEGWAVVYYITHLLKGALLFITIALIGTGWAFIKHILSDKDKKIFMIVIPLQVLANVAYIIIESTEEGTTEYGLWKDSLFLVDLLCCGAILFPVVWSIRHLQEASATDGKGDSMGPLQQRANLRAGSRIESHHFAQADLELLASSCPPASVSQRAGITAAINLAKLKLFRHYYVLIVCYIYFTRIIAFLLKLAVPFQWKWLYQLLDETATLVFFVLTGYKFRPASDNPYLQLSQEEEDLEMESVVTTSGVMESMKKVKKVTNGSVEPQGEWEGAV
UniProt Q9NWU2, whole entry, looked up: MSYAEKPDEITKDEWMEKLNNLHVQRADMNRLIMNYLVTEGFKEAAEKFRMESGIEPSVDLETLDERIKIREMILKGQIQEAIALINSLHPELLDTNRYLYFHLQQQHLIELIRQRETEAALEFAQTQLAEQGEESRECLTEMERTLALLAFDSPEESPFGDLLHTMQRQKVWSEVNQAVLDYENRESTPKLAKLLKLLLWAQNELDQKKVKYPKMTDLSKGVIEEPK
UniProt P49840: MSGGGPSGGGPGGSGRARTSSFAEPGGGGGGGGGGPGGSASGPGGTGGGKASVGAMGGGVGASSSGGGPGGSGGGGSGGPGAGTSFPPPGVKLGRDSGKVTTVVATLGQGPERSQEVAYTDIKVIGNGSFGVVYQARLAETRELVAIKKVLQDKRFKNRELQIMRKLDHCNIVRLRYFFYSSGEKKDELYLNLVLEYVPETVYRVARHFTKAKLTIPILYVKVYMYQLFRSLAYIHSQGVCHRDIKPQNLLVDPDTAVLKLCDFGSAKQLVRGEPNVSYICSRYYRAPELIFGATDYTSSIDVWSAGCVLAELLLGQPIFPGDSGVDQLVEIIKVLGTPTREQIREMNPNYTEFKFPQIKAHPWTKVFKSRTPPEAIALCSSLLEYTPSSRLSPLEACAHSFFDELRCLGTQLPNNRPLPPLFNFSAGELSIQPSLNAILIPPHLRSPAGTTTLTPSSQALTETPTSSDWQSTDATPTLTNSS
UniProt Q86V85: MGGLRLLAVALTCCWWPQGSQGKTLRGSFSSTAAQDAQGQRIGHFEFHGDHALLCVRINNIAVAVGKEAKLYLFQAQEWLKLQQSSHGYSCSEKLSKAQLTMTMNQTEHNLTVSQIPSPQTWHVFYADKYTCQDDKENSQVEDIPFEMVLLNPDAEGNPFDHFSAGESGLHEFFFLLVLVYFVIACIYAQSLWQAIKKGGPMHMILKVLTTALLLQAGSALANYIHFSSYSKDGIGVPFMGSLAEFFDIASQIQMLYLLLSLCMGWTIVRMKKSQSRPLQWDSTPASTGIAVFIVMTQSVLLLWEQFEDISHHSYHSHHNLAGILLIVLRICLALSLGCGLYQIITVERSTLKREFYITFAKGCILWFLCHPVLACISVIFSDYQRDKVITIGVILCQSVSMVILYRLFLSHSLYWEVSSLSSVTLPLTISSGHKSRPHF
UniProt Q9NZD2: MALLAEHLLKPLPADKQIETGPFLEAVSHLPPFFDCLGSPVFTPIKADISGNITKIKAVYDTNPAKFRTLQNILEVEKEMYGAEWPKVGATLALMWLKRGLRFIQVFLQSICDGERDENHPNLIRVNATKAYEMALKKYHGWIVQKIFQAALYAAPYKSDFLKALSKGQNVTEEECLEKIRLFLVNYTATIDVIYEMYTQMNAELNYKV

Assays:
Assay in all cases: log2 fold change, soluble protein after heating vs DMSO (PISA); higher = thermal stabilisation; K562 cells, 10 uM, 30 min; active = over 0.2 and 3.5 SD of the protein, either way, in both replicates (recomputed)
bafetinib = compound: Cc1ccc(NC(=O)c2ccc(CN3CC[C@H](N(C)C)C3)c(C(F)(F)F)c2)cc1Nc1nccc(-c2cncnc2)n1 [bafetinib]
In short: (§1)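 K562 cells at 2×10^6 cells/mL were exposed to 10 μM compound for 30 min, then aliquots were heated for 3 min across 48°C-58°C, pooled, and extracted in PBS containing 0.5% NP-40 at 4°C. The supernatant after 21,000xg for 90 min was taken as soluble protein and measured by TMTpro 16plex LC-MS/MS with channel sums equalised. Thermal stability is reported relative to control samples, with values from duplicates. Fold changes are given on a log2 scale.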

[1] = compound: Cc1cccc(CC(=O)N2CCc3c2ccc(-c2cn(C)c4ncnc(N)c24)c3F)n1
In short: as §1

dasatinib = compound: Cc1nc(Nc2ncc(C(=O)Nc3c(C)cccc3Cl)s2)cc(N2CCN(CCO)CC2)n1 [dasatinib]
In short: as §1

[2] = compound: Cn1cc(-c2ccc3c(c2)CCN3C(=O)Cc2cccc(C(F)(F)F)c2)c2c(N)ncnc21
In short: as §1

[3] = compound: Cn1cc(-c2ccc3nnc(C(F)(F)c4ccc5ncccc5c4)n3n2)cn1
In short: as §1

tipifarnib = compound: Cn1cncc1[C@@](N)(c1ccc(Cl)cc1)c1ccc2c(c1)c(-c1cccc(Cl)c1)cc(=O)n2C [tipifarnib]
In short: as §1

[4] = compound: NC(=O)c1cnc(N[C@@H]2CCCC[C@@H]2N)nc1Nc1cccc(-n2nccn2)c1
In short: as §1

[5] = compound: NCC(=O)Nc1ccc(-n2nc(C(F)(F)F)cc2-c2ccc3c(ccc4ccccc43)c2)cc1
In short: as §1

vorinostat = compound: O=C(CCCCCCC(=O)Nc1ccccc1)NO [vorinostat]
In short: as §1

citarinostat = compound: O=C(CCCCCCNC(=O)c1cnc(N(c2ccccc2)c2ccccc2Cl)nc1)NO [citarinostat]
In short: as §1

[6] = compound: c1cc(OCCN2CCCCC2)cc(-c2n[nH]c3ccc(-c4nnc[nH]4)cc23)c1
In short: as §1

nilotinib = compound: Cc1cn(-c2cc(NC(=O)c3ccc(C)c(Nc4nccc(-c5cccnc5)n4)c3)cc(C(F)(F)F)c2)cn1 [nilotinib]
In short: as §1

[7] = compound: Cc1nc(Nc2n[nH]c3c2CN(C(=O)N[C@H](CN(C)C)c2ccccc2)C3(C)C)c2sccc2n1
In short: as §1

[8] = compound: Cc1ncc(-c2ccnc(Nc3ccc(S(C)(=O)=O)cc3)n2)n1C(C)C
In short: as §1

mubritinib = compound: FC(F)(F)c1ccc(/C=C/c2nc(COc3ccc(CCCCn4ccnn4)cc3)co2)cc1 [mubritinib]
In short: as §1

[9] = compound: NC1(c2ccc(-c3nc4ccn5c(=O)[nH]nc5c4cc3-c3ccccc3)cc2)CCC1
In short: as §1

silmitasertib = compound: O=C(O)c1ccc2c(c1)nc(Nc1cccc(Cl)c1)c1ccncc12 [silmitasertib]
In short: as §1

[10] = compound: O=C1NC(=O)C(c2cnc3ccccn23)=C1c1cn2c3c(cc(F)cc13)CN(C(=O)N1CCCCC1)CC2
In short: as §1

[11] = compound: NC(=O)Nc1cc(-c2cccc(F)c2)sc1C(=O)N[C@H]1CCCNC1
In short: as §1

entinostat = compound: Nc1ccccc1NC(=O)c1ccc(CNC(=O)OCc2cccnc2)cc1 [entinostat]
In short: as §1

Target	log2 fold change (bafetinib)	log2 fold change [1]	log2 fold change (dasatinib)	log2 fold change [2]	log2 fold change [3]	log2 fold change (tipifarnib)	log2 fold change [4]	log2 fold change [5]	log2 fold change (vorinostat)	log2 fold change (citarinostat)	log2 fold change [6]	log2 fold change (nilotinib)	log2 fold change [7]	log2 fold change [8]	log2 fold change (mubritinib)	log2 fold change [9]	log2 fold change (silmitasertib)	log2 fold change [10]	log2 fold change [11]	log2 fold change (entinostat)
GOLGA8R (UniProt I6L899)	inactive: -0.095	inactive: -0.021	inactive: -0.074	inactive: 0.189	inactive: 0.126	inactive: 0.287	inactive: -0.1	inactive: 0.02	inactive: 0.073	inactive: 0.09	inactive: 0.006	–	–	–	–	–	–	–	–	–
GNPTG (UniProt Q9UJJ9)	inactive: -0.067	inactive: -0.037	inactive: 0.062	inactive: -0.129	inactive: 0.064	–	inactive: -0.054	–	inactive: -0.013	–	–	inactive: 0.041	inactive: -0.003	inactive: -0.013	inactive: -0.008	inactive: -0.02	inactive: -0.021	inactive: 0.11	–	–
GPAT4 (UniProt Q86UL3)	inactive: -0.138	inactive: -0.028	inactive: -0.024	inactive: 0.093	inactive: -0.018	inactive: -0.069	inactive: 0.002	inactive: -0.028	inactive: -0.017	inactive: 0.004	inactive: -0.068	inactive: -0.047	inactive: 0.049	inactive: -0.009	inactive: -0.008	inactive: -0.012	inactive: -0.005	inactive: -0.077	inactive: -0.031	inactive: -0.107
GINM1 (UniProt Q9NU53)	inactive: -0.163	inactive: 0.061	–	–	–	inactive: -0.025	–	–	inactive: 0.076	inactive: 0.009	inactive: 0.106	inactive: -0.158	inactive: 0.094	inactive: 0.043	inactive: -0.043	inactive: -0.211	inactive: 0.055	inactive: 0.209	inactive: -0.088	inactive: 0.279
GOPC (UniProt Q9HD26)	inactive: 0.233	inactive: -0.131	inactive: -0.081	inactive: -0.005	inactive: -0.02	inactive: 0.127	inactive: -0.011	inactive: -0.002	inactive: -0.038	–	–	inactive: 0.009	inactive: 0.05	inactive: 0.021	inactive: -0.226	inactive: 0.15	inactive: 0.029	inactive: 0.265	inactive: -0.055	inactive: -0.092
GMPPA (UniProt Q96IJ6)	inactive: -0.028	inactive: -0.024	inactive: -0.059	inactive: 0.039	inactive: 0.042	inactive: -0.022	inactive: 0.062	inactive: 0	inactive: 0.002	inactive: 0.012	inactive: -0.004	inactive: -0.034	inactive: -0.001	inactive: 0.034	inactive: 0.005	inactive: -0.056	inactive: -0.024	inactive: -0.039	inactive: 0.015	inactive: -0.005
GPR107 (UniProt Q5VW38)	inactive: -0.075	inactive: -0.059	inactive: 0.032	inactive: 0.05	inactive: 0.015	inactive: 0.029	inactive: 0.034	inactive: 0.034	inactive: -0.012	inactive: -0.042	inactive: -0.056	inactive: 0.05	inactive: 0.029	inactive: 0.017	inactive: -0.054	inactive: 0.002	inactive: 0.023	inactive: 0.052	inactive: -0.013	inactive: -0.017
GID8 (UniProt Q9NWU2)	inactive: -0.02	inactive: -0.028	inactive: -0.056	inactive: 0.018	inactive: -0.001	inactive: 0.047	inactive: -0.067	inactive: -0.023	inactive: -0.042	inactive: 0.022	inactive: -0.016	inactive: 0.01	inactive: -0.028	inactive: -0.016	inactive: -0.001	inactive: -0.041	inactive: 0.106	inactive: -0.049	inactive: -0.038	inactive: 0.056
GPS1 (UniProt A8K070)	inactive: -0.13	inactive: -0.015	–	inactive: 0.079	inactive: -0.104	–	–	–	inactive: 0.002	inactive: 0.004	inactive: 0.056	inactive: 0.05	inactive: 0	inactive: -0.113	inactive: 0.044	inactive: -0.002	inactive: 0.023	–	–	–
GSK3A (UniProt P49840)	inactive: -0.052	inactive: -0.027	inactive: -0.024	inactive: -0.004	inactive: 0.011	inactive: -0.033	inactive: 0.014	inactive: 0.051	inactive: -0.053	inactive: 0.015	inactive: 0.193	inactive: -0.01	active: 0.308	active: 0.383	inactive: 0.038	inactive: -0.054	inactive: -0.004	active: 0.454	inactive: -0.02	inactive: -0.03
GPR180 (UniProt Q86V85)	inactive: 0.561	inactive: -0.104	inactive: -0.237	inactive: 0.133	–	inactive: -0.048	inactive: -0.214	inactive: -0.076	inactive: 0.027	–	–	–	–	–	inactive: 0.207	inactive: -0.285	inactive: -0.079	inactive: 0.016	inactive: 0.003	inactive: 0.082
GLTP (UniProt Q9NZD2)	inactive: 0.058	inactive: 0.029	–	inactive: 0.163	inactive: 0.008	inactive: 0.009	inactive: 0.242	inactive: 0.023	inactive: -0.063	inactive: -0.174	inactive: -0.081	inactive: 0.163	inactive: -0.029	inactive: 0.018	inactive: 0.033	inactive: -0.03	inactive: -0.046	–	inactive: -0.162	inactive: 0.033

Quoted from the listing (2 entries):
Target	log2 fold change (bafetinib)	log2 fold change [1]	log2 fold change (dasatinib)	log2 fold change [2]	log2 fold change [3]	log2 fold change (tipifarnib)	log2 fold change [4]	log2 fold change [5]	log2 fold change (vorinostat)	log2 fold change (citarinostat)	log2 fold change [6]	log2 fold change (nilotinib)	log2 fold change [7]	log2 fold change [8]	log2 fold change (mubritinib)	log2 fold change [9]	log2 fold change (silmitasertib)	log2 fold change [10]	log2 fold change [11]	log2 fold change (entinostat)
GOPC (UniProt Q9HD26)	inactive: 0.233	inactive: -0.131	inactive: -0.081	inactive: -0.005	inactive: -0.02	inactive: 0.127	inactive: -0.011	inactive: -0.002	inactive: -0.038	–	–	inactive: 0.009	inactive: 0.05	inactive: 0.021	inactive: -0.226	inactive: 0.15	inactive: 0.029	inactive: 0.265	inactive: -0.055	inactive: -0.092
GMPPA (UniProt Q96IJ6)	inactive: -0.028	inactive: -0.024	inactive: -0.059	inactive: 0.039	inactive: 0.042	inactive: -0.022	inactive: 0.062	inactive: 0	inactive: 0.002	inactive: 0.012	inactive: -0.004	inactive: -0.034	inactive: -0.001	inactive: 0.034	inactive: 0.005	inactive: -0.056	inactive: -0.024	inactive: -0.039	inactive: 0.015	inactive: -0.005
